Assay results taken from PMC7753216.
Results are given in words; binding and its absence hold for the method and conditions named. In cells and extracts the contact can be indirect. Some entries that bind do so weakly or less than the wild type.

Protein sequences, listed by entry. Tags and fused reporters are not part of them. Lines headed by an entry give the natural chain unless they say otherwise; changes in a name come on top.
UniProt Q5VTR2: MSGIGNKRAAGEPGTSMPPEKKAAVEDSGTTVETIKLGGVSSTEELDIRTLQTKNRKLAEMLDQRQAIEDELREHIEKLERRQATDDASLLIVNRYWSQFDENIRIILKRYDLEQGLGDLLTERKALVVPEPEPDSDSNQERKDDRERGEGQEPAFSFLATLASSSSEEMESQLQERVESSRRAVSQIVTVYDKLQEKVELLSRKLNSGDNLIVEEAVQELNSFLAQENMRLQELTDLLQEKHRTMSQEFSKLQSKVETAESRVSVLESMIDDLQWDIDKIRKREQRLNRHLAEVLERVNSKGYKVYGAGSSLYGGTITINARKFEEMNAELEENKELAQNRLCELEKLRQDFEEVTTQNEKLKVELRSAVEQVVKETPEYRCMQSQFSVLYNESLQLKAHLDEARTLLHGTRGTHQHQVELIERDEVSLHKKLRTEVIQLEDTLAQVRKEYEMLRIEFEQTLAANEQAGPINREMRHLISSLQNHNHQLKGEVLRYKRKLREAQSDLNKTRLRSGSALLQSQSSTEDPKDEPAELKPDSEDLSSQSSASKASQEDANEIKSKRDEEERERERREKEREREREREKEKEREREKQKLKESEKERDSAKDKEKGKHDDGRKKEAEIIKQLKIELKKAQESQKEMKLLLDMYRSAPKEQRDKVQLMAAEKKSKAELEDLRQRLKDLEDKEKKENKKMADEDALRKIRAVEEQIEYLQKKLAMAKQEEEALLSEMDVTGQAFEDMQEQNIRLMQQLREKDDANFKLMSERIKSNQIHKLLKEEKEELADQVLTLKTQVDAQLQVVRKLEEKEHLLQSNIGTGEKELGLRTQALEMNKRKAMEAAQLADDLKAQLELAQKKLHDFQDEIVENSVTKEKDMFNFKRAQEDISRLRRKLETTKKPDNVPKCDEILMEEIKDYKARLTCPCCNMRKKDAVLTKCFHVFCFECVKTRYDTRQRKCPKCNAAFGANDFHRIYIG
UniProt Q96KQ7: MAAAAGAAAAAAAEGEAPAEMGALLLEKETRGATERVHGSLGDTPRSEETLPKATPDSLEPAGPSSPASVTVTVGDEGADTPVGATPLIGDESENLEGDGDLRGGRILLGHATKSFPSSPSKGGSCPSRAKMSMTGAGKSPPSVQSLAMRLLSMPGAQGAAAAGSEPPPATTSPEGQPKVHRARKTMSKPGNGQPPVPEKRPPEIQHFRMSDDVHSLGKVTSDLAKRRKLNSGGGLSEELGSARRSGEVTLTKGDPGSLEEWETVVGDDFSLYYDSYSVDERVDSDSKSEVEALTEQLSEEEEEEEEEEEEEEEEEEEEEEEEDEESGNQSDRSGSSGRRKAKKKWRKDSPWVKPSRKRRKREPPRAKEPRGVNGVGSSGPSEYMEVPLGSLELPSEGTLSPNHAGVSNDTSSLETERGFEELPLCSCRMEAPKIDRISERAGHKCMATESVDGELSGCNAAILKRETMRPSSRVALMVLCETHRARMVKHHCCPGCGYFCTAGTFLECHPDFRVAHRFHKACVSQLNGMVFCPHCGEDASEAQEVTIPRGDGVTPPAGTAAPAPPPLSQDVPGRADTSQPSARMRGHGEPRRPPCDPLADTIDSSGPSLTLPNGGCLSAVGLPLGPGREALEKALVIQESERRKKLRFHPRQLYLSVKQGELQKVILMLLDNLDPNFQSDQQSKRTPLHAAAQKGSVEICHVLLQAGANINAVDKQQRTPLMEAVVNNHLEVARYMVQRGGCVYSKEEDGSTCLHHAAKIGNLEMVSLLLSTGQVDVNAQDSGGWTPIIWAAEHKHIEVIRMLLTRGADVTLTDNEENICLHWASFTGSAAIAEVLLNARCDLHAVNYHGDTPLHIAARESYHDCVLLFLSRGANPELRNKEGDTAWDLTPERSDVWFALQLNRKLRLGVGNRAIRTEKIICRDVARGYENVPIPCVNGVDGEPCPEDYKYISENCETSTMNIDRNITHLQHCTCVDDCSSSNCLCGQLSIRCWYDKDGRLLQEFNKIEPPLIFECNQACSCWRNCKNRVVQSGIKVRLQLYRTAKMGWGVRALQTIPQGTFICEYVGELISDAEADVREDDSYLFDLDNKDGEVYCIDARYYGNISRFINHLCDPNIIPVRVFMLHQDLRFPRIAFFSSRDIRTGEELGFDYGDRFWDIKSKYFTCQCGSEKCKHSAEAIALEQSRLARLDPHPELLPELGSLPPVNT
UniProt O95863: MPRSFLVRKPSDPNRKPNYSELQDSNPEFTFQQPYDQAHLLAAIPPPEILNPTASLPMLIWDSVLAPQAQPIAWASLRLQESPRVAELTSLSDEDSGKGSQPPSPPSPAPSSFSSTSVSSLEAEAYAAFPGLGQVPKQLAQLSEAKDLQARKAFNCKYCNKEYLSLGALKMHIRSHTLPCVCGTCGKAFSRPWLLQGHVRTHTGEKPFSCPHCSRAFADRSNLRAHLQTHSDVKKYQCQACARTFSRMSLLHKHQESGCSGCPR

Columns and labels:
Assay in all cases: co-IP; proteins transiently co-expressed in 293T cells; cell extracts immunoprecipitated with Flag or HA antibodies; associated protein detected by Western blotting
HA-tagged RNF20 (human) = HA-tagged RNF20 (human) (UniProt Q5VTR2)
[1] = molecular target: Flag-tagged RNF20 (human) (UniProt Q5VTR2)
Flag-tagged G9a = Flag-tagged G9a (UniProt Q96KQ7)
HA-tagged Snail (human) = HA-tagged Snail (human) (UniProt O95863)

## Flag-tagged G9a (from UniProt Q96KQ7 1-1210)
HA-tagged RNF20 (human)
  binding: binds

## HA-tagged Snail (from UniProt O95863 1-264)
[1]
  binding: binds

## HA-tagged RNF20 (from UniProt Q5VTR2 1-975)
Flag-tagged G9a
  binding: binds

## C-terminal region of Snail (C-Snail; amino acids 153–264) (from UniProt O95863 153-264) (domain or fragment)
[1]
  binding: binds

## Flag-tagged RNF20 (from UniProt Q5VTR2 1-975)
HA-tagged Snail (human)
  binding: binds
